The test concerns the target T1, Tocopherol alpha transfer protein-like (TTPAL), bait of the CoIP-MS in HEK293T cells (human) (UniProt Q9BTX7).
T1 sequence: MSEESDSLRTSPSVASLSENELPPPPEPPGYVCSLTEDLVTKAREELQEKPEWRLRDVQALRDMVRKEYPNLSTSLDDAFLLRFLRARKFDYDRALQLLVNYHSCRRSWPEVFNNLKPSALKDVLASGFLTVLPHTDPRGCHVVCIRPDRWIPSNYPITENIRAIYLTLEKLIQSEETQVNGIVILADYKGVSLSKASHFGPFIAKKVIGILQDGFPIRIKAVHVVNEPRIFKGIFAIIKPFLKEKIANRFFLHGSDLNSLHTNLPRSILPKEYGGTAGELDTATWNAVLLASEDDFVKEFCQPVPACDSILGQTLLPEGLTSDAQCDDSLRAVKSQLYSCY
The test is described as follows: affinity purification with mass spectrometry; coimmunoprecipitation of TTPAL from HEK293T cells coupled with mass spectrometry (CoIP-MS).

These are yes or no findings as the source states them, for the method shown. Binding seen in cells or lysates may run through a third protein. Here binding means that the protein was enriched with, or labelled near, the bait; the list need not be complete.

B1: RBM15 (protein, UniProt Q96T37 1-977)
chain: MRTAGRDPVPRRSPRWRRAVPLCETSAGRRVTQLRGDDLRRPATMKGKERSPVKAKRSRGGEDSTSRGERSKKLGGSGGSNGSSSGKTDSGGGSRRSLHLDKSSSRGGSREYDTGGGSSSSRLHSYSSPSTKNSSGGGESRSSSRGGGGESRSSGAASSAPGGGDGAEYKTLKISELGSQLSDEAVEDGLFHEFKRFGDVSVKISHLSGSGSGDERVAFVNFRRPEDARAAKHARGRLVLYDRPLKIEAVYVSRRRSRSPLDKDTYPPSASVVGASVGGHRHPPGGGGGQRSLSPGGAALGYRDYRLQQLALGRLPPPPPPPLPRDLERERDYPFYERVRPAYSLEPRVGAGAGAAPFREVDEISPEDDQRANRTLFLGNLDITVTESDLRRAFDRFGVITEVDIKRPSRGQTSTYGFLKFENLDMSHRAKLAMSGKIIIRNPIKIGYGKATPTTRLWVGGLGPWVPLAALAREFDRFGTIRTIDYRKGDSWAYIQYESLDAAHAAWTHMRGFPLGGPDRRLRVDFADTEHRYQQQYLQPLPLTHYELVTDAFGHRAPDPLRGARDRTPPLLYRDRDRDLYPDSDWVPPPPPVRERSTRTAATSVPAYEPLDSLDRRRDGWSLDRDRGDRDLPSSRDQPRKRRLPEESGGRHLDRSPESDRPRKRHCAPSPDRSPELSSSRDRYNSDNDRSSRLLLERPSPIRDRRGSLEKSQGDKRDRKNSASAERDRKHRTTAPTEGKSPLKKEDRSDGSAPSTSTASSKLKSPSQKQDGGTAPVASASPKLCLAWQGMLLLKNSNFPSNMHLLQGDLQVASSLLVEGSTGGKVAQLKITQRLRLDQPKLDEVTRRIKVAGPNGYAILLAVPGSSDSRSSSSSAASDTATSTQRPLRNLVSYLKQKQAAGVISLPVGGNKDKENTGVLHAFPPCEFSQQFLDSPAKALAKSEEDYLVMIIVRGFGFQIGVRYENKKRENLALTLL
Turning to B1, the binding result is “binds”.

B2: RBM14 (protein, UniProt Q96PK6 1-669)
chain: MKIFVGNVDGADTTPEELAALFAPYGTVMSCAVMKQFAFVHMRENAGALRAIEALHGHELRPGRALVVEMSRPRPLNTWKIFVGNVSAACTSQELRSLFERRGRVIECDVVKDYAFVHMEKEADAKAAIAQLNGKEVKGKRINVELSTKGQKKGPGLAVQSGDKTKKPGAGDTAFPGTGGFSATFDYQQAFGNSTGGFDGQARQPTPPFFGRDRSPLRRSPPRASYVAPLTAQPATYRAQPSVSLGAAYRAQPSASLGVGYRTQPMTAQAASYRAQPSVSLGAPYRGQLASPSSQSAAASSLGPYGGAQPSASALSSYGGQAAAASSLNSYGAQGSSLASYGNQPSSYGAQAASSYGVRAAASSYNTQGAASSLGSYGAQAASYGAQSAASSLAYGAQAASYNAQPSASYNAQSAPYAAQQAASYSSQPAAYVAQPATAAAYASQPAAYAAQATTPMAGSYGAQPVVQTQLNSYGAQASMGLSGSYGAQSAAAATGSYGAAAAYGAQPSATLAAPYRTQSSASLAASYAAQQHPQAAASYRGQPGNAYDGAGQPSAAYLSMSQGAVANANSTPPPYERTRLSPPRASYDDPYKKAVAMSKRYGSDRRLAELSDYRRLSESQLSFRRSPTKSSLDYRRLPDAHSDYARYSGSYNDYLRAAQMHSGYQRRM
For the molecule B2, the binding result is on record as “binds”.

The values above are taken from PMC12297799.
